Values of other authors in patent publication US9688695B2, “Imidazothiadiazole and imidazopyrazine derivatives as protease activated receptor 4 (PAR4) inhibitors for treating platelet aggregation” (BRISTOL-MYERS SQUIBB COMPANY, priority 2012, dated 2017).
At least one compound was matched to its structure with a doubt left.

Protein sequences, listed by entry. Tags and fused reporters are not part of them. Residues count along the entry.
UniProt Q96RI0, 18-385: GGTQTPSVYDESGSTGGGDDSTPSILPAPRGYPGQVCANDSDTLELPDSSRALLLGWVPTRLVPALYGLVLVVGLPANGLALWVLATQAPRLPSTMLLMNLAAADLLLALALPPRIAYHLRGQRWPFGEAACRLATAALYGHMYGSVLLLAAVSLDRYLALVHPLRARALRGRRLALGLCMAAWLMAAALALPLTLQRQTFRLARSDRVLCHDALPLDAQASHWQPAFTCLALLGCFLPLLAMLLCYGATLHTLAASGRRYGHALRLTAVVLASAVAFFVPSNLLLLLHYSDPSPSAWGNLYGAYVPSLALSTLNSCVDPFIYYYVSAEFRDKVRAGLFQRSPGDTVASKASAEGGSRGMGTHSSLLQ

Biological target: protease-activated receptor type 4 (PAR4) (Homo sapiens (Human), UniProt Q96RI0)
Conditions: cited from earlier work

## CCOC(=O)c1ccc(-c2nn(Cc3ccccc3)c3ccccc23)cc1 [Compound 58]
  inhibition of PAR4-dependent platelet activation: selective and potent inhibitor
